Assay results from ChEMBL document CHEMBL5584273, “Investigation of Isobactin Analogues of Teixobactin” (ACS Med Chem Lett, 2024).

Test system: Escherichia coli
Assay: Antibiotic activity against Escherichia coli ATCC 10798 assessed as inhibition of bacterial growth incubated for 16 hrs in presence of 0.002% polysorbate 80
Assay type: functional
In short: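 Broth microdilution in media containing 0.002% polysorbate 80. Overnight cultures were grown at 37 °C with shaking in Mueller-Hinton broth. Inoculum was set from background-corrected OD600 to about 5 × 10^5 CFU/mL final. 2-fold dilutions gave final 8 to 0.0078 μg/mL from a DMSO stock. Plates were incubated 16 h at 37 °C and OD600 was read. MIC is the lowest concentration with no growth. Run in quadruplicate technical replicates.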

With CN[C@H](CC(C)C)C(=O)N[C@H]1C(=O)N[C@@H](CC(N)=O)C(=O)N[C@H]2C(=O)N[C@H]3C(=O)N[C@H](C(=O)N[C@H](C(=O)O)c4cc(O)cc(O)c4-c4cc3ccc4O)[C@H](O)c3ccc(c(Cl)c3)Oc3cc2cc(c3O[C@@H]2O[C@H](CO)[C@@H](O)[C@H](O)[C@H]2O[C@H]2C[C@](C)(N)[C@H](O)[C@H](C)O2)Oc2ccc(cc2Cl)[C@H]1O [VANCOMYCIN] the MIC was > 8 µg/mL.
